# According to PMC8227810:
# Results are given in words; binding and its absence hold for the method and conditions named. Binding seen in cells or lysates may run through a third protein. Some results given as binding are weak or reduced against the parent protein; the word gives no strength. Where a sequence is shown, tags or fusion partners need not be part of it.
# Biological target: T1, FLAG-tagged FAM111B (UniProt Q6SJ93)
# T1 sequence: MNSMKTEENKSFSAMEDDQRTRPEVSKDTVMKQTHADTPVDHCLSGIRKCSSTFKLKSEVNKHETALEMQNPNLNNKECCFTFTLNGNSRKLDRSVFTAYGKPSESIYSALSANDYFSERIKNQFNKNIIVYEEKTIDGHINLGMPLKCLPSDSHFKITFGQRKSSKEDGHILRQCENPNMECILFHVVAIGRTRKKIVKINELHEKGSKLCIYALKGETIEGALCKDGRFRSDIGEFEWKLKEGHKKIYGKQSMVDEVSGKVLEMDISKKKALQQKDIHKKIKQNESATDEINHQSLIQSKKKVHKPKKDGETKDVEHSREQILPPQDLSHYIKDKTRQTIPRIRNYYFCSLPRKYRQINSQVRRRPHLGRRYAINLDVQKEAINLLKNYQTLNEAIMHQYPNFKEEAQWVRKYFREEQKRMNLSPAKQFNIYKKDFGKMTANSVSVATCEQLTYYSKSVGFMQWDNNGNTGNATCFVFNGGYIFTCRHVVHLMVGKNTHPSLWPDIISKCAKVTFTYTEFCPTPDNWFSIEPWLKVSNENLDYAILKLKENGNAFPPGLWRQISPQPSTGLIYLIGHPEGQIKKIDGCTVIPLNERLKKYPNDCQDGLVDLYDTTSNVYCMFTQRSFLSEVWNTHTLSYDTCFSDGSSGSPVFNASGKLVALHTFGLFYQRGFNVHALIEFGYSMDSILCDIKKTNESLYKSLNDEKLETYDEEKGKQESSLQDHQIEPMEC
# Test: pull-down; only the target purified
row,Substance,binding
1,HAdV-C5 E1A 12S (from UniProt P03255-2 1-243),no binding
2,HAdV-C5 E1A 13S (from UniProt P03255 1-289),no binding
3,HAdV-C5 E1B-55K (from UniProt P03243 1-496),binds
